# Assay results published in PubChem BioAssay AID2551 (National Center for Advancing Translational Sciences (NCATS), 2010).
# By UniProt entry, the sequences of proteins in these tests, tags left out. Where a name states a change or a piece, a line headed by the entry shows the natural chain unless it says otherwise.
# UniProt P51450: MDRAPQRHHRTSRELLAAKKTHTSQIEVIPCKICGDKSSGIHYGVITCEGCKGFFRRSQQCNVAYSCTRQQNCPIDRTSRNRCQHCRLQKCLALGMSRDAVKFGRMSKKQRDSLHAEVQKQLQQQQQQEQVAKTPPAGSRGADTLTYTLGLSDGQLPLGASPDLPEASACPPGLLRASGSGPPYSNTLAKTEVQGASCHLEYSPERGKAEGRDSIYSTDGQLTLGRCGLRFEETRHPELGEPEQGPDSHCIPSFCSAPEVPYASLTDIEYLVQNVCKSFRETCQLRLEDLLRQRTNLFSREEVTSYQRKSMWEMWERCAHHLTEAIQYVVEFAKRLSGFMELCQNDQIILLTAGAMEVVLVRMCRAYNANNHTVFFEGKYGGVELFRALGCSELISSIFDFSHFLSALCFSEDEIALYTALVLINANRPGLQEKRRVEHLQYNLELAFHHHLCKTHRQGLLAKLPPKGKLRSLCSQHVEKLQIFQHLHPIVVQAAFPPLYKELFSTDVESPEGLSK
# Out of some 310,000 compounds screened, about 17,000 (5.5%) were called active. This list was built around the results that the source calls inconclusive (neither active nor inactive); the mix of calls is not that of the screen. The call rests on the fitted dose curve; in most records, active means well fitted inhibition curve with a large enough effect; inconclusive means small, poorly fitted or top-dose-only effect, or effect the other way; inactive means no such curve, though single readings can be large or run the other way. Potencies beside an inconclusive call are fits to weak or partial responses and may not hold up.
# Target: Nuclear receptor ROR-gamma (Mus musculus) (UniProt P51450)
# Experiment: qHTS for inhibitors of ROR gamma transcriptional activity; further: nearly all actives have a fitted effect of over 60% in size
# Settings: Drosophila S2 Gal4-RORgamma UAS-luciferase reporter, 20 h; activity change, negative = inhibition: at 53.6 µM (top of the series)
# Method in brief: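 Drosophila Schneider cells stably carrying a metallothionein-driven Gal4 DBD–ROR gamma fusion and a UAS-Photinus luciferase reporter were exposed to compound for 1 hr, then induced with copper sulfate (700 uM final) for 20 hr at ambient temperature before luminescence reading.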
# On the % scale 0 is the no-effect control and ±100 the full control effect; potency means the concentration at half of the fitted maximal effect.
Compound,Potency,"activity change, negative = inhibition"
COc1ccc(Cn2c(C)nc3ccc([N+](=O)[O-])cc3c2=O)cc1,"inconclusive: 14.1 µM [activator, single point]",–
CCSc1nnc(Cn2c(=O)sc3ccccc32)n1C,inactive,–
COC(=O)C1=C(C(=O)OC)SC2(S1)C(C(=O)OC)=C(C(=O)OC)SC1=C2c2cc(C)ccc2NC1(C)C,active: 4.47 µM,–
CCNC(=S)N/N=C/c1ccc(OCC(=O)Nc2ccc(OC)cc2)c(OC)c1,active: 4.47 µM,–
CC(=O)Oc1ccc(C(=O)NCCc2ccccc2)cc1,"inconclusive: 20 µM [inhibitor, single point]",–
COc1ccc(CN(C)C(=O)c2[nH]c(C)c(C(C)=O)c2C)cc1F,"inconclusive: 22.4 µM [activator, single point]",–
Cc1sc2nc(CSc3nc4ccccc4s3)[nH]c(=O)c2c1C,inactive,–
CN(C)CCCN(C(=O)c1ccc(S(=O)(=O)N2CCc3ccccc32)cc1)c1nc2c(Cl)cccc2s1,"inconclusive: 35.5 µM [inhibitor, single point]",–
COc1ccc(CCNC(=O)COC(=O)Cc2cccc3ccccc23)cc1,"inconclusive: 14.1 µM [activator, single point]",–
CCOc1ccc(CC(=O)N/N=C(\C)c2cccnc2)cc1OCC,"inconclusive: 12.6 µM [activator, partial curve]",–
CNC(=S)N1N=C(c2cccs2)CC1c1ccc(F)cc1 (stereo unspecified),"inconclusive: 15.8 µM [inhibitor, single point]",–
O=C(/C=C/c1cccc(Br)c1)NC1CCN(Cc2ccccc2)CC1,inactive,–
COc1ccc(OCC(O)CN(C)C(=O)C(C)Oc2ccccc2)cc1 (stereo unspecified),inactive,–
CC(=O)N[C@@H](CSC(=O)[C@]1([C@@H](O)C(C)C)NC(=O)[C@H](C)[C@@H]1O)C(=O)O,"inconclusive: 0.282 µM [inhibitor, partial curve]",–
CC(C)c1nc(SCC(=O)Nc2nc3c(s2)CCCC3)c2ccccc2n1,"inconclusive: 20 µM [inhibitor, single point]",–
CC1CC1C(=O)Nc1nc(-c2cccs2)c(-c2cccs2)s1 (stereo unspecified),active: 10 µM,–
CCC1Oc2ccc(C)cc2N(CC(=O)N(Cc2cccnc2)Cc2ccc(C)o2)C1=O (stereo unspecified),active: 14.1 µM,–
CC(C)C(C(=O)NCc1ccco1)N(Cc1ccco1)C(=O)CNS(=O)(=O)c1ccc(F)cc1 (stereo unspecified),"inconclusive: 35.5 µM [activator, single point]",–
COc1ccc(C2CCCN2C(=S)Nc2cccc(C)c2C)cc1OC (stereo unspecified),"inconclusive: 12.6 µM [inhibitor, single point]",–
O=C(CCN1CCOCC1)c1ccccc1,"inconclusive: 35.5 µM [inhibitor, single point]",–
COc1ccccc1NC(=O)CSc1nnc(-c2ccccn2)n1Cc1ccco1,"inconclusive: 20 µM [inhibitor, single point]",–
CCc1ccc(NC(=O)c2ccc3c(c2)C(=O)N(Cc2ccco2)C3=O)cc1,"inconclusive: 11.2 µM [activator, single point]",–
Cc1ccc(NC(=S)N2CCN(c3ncccn3)CC2)cc1C,active: 12.6 µM,–
CCOC(=O)C1=C(NC(=S)NC(=O)c2ccccc2)c2ccccc2CC1(C)C,active: 4.47 µM,–

# Arranged by molar mass (ascending): part of the list above.
Compound,Potency,"activity change, negative = inhibition"
CNC(=S)N1N=C(c2cccs2)CC1c1ccc(F)cc1 (stereo unspecified),"inconclusive: 15.8 µM [inhibitor, single point]",–
COc1ccc(OCC(O)CN(C)C(=O)C(C)Oc2ccccc2)cc1 (stereo unspecified),inactive,–
CC(=O)N[C@@H](CSC(=O)[C@]1([C@@H](O)C(C)C)NC(=O)[C@H](C)[C@@H]1O)C(=O)O,"inconclusive: 0.282 µM [inhibitor, partial curve]",–
CCNC(=S)N/N=C/c1ccc(OCC(=O)Nc2ccc(OC)cc2)c(OC)c1,active: 4.47 µM,–
COC(=O)C1=C(C(=O)OC)SC2(S1)C(C(=O)OC)=C(C(=O)OC)SC1=C2c2cc(C)ccc2NC1(C)C,active: 4.47 µM,–

# (listing goes on)

Compound,Potency,"activity change, negative = inhibition"
COc1ccc(C)cc1-n1nnnc1SCc1csc(C)n1,inactive,–
O=C1c2oc3ccccc3c(=O)c2C(c2cccc(O)c2)N1c1ccccn1 (stereo unspecified),"inconclusive: 2.51 µM [inhibitor, single point]",–
Oc1ccccc1C=NC1=NN(c2cccc(C(F)(F)F)c2)CC1,"inconclusive: 35.5 µM [activator, single point]",–
Cc1ccc(-c2csc(N/N=C/c3ccco3)n2)cc1,inactive,–
O=C(NCCC1=CCCCC1)C1CCN(S(=O)(=O)c2cccc3nsnc23)CC1,"inconclusive: 35.5 µM [activator, single point]",–
C[C@H](Cn1cnc2c(N)ncnc21)OCP(=O)(O)O,inactive,–
COc1ccc(S(=O)(=O)N2Cc3ccccc3CC2C(=O)Nc2ccc(O)cc2)cc1OC (stereo unspecified),"inconclusive: 3.98 µM [activator, full curve, poor fit]",–
O=C1C=CC2(OCCCO2)C(Br)=C1CO,"inconclusive: 31.6 µM [inhibitor, single point]",–
C#CCOCCOCCOCCNc1nc(N2CCN(C(=O)[C@H]([C@@H](C)CC)n3cc([C@@H](N)CC(C)C)nn3)CC2)nc(N2CCN(C(=O)[C@H](Cc3cc4ccccc4[nH]3)n3cc([C@@H](N)Cc4ccc(O)cc4)nn3)CC2)n1,inactive,–
COc1ccc(Cl)cc1NC(=S)Nc1cccc(C)c1,active: 11.2 µM,–
Cc1ccc(Cl)cc1NC(=O)C1C2CCC(O2)C1C(=O)O (stereo unspecified),inactive,–
CNC(=O)c1c(NC(=O)c2cccc(C)c2)sc2c1CCC2,"inconclusive: 10 µM [activator, partial curve]",–
Cc1ccc(C)c(C(=O)Nc2cc(C)nn2-c2nc(C)cc(C)n2)c1,active: 0.501 µM,–
N/C(=N\OC(=O)c1cccs1)c1cccnc1,"inconclusive: 5.62 µM [activator, single point]",–
Cc1cc(NCCc2ccccc2F)n2ncnc2n1,"inconclusive: 28.2 µM [activator, single point]",–
CCC/C=C(\CCC)C(NS(=O)(=O)c1ccccc1)c1ccc(C(F)(F)F)cc1 (stereo unspecified),"inconclusive: 35.5 µM [activator, single point]",–
COc1ccccc1NC(=S)N1CCN(C(c2ccccc2)c2ccccc2)CC1,active: 3.55 µM,–
CCOc1cc(CNCc2ccccc2)ccc1OCc1ccc(Cl)cc1,"inconclusive: 22.4 µM [inhibitor, single point]",–
CCCc1ccc(C(=O)N2CCN(c3ccccc3OCC)CC2)cc1,"inconclusive: 35.5 µM [inhibitor, single point]",–
CN(Cc1ccc(C(F)(F)F)cc1)C(=O)c1ccc(Oc2ccccc2)cc1,inactive,–
COc1ccc(C(Nc2cc(C)ccn2)c2ccc3ccc(C)nc3c2O)cc1 (stereo unspecified),active: 2.51 µM,–
CC(=O)N1CCN(S(=O)(=O)c2cccc(C(=O)Nc3ccc(C)cn3)c2)CC1,"inconclusive: 15.8 µM [activator, partial curve, poor fit]",–
CCn1nc(C)cc1C(=O)NC1CC(C)(C)Cc2c1cnn2-c1cccc(F)c1 (stereo unspecified),"inconclusive: 0.141 µM [activator, full curve, poor fit]",–
COC(=O)C1=C(C)N(Cc2ccccc2)C(=NCC2CC2)N[C@H]1c1ccccc1,"inconclusive: 11.2 µM [activator, single point]",–

Compound,Potency,"activity change, negative = inhibition"
O=C(CSc1nc2c(cnn2-c2ccccc2)c(=O)[nH]1)c1ccc(Cl)cc1,"inconclusive: 6.31 µM [activator, single point]",–
CC(C)(C)OC(=O)N1CCC[C@H]1C(O)(c1ccccc1)c1ccccc1,inactive,–
CC1CC(=O)C2=C(C1)Nc1ncnn1C2c1ccccc1 (stereo unspecified),inactive,–
O=C(O)c1cc(Cl)c2ccccc2c1O,"inconclusive: 2.51 µM [inhibitor, partial curve]",–
CC(=O)Nc1ccc(OS(=O)(=O)c2cc(Cl)ccc2C)cc1,inactive,–
CCc1nc(SCC(=O)NCc2ccco2)c2c3c(sc2n1)CCCC3,"inconclusive: 11.2 µM [inhibitor, single point]",–
COc1cccc(NC(=O)C2C3C=CC(O3)C2C(=O)NCc2cccnc2)c1 (stereo unspecified),"inconclusive: 17.8 µM [inhibitor, single point]",–
O=C(N/N=C/c1ccco1)c1cc(Br)ccc1OCc1ccccc1,"inconclusive: 35.5 µM [inhibitor, single point]",–
COc1ccc(NC(=S)N(CCc2c(C)[nH]c3ccccc23)Cc2cccnc2)cc1,"inconclusive: 12.6 µM [activator, single point]",–
O=C(CSc1c2c(nc3cc(Cl)ccc13)CCCC2)NCc1ccco1,inactive,–
O=C(c1ccc(CS(=O)c2cccc(Cl)c2)o1)N1CCN(C2CCCCC2)CC1 (stereo unspecified),inactive,–
Clc1ccc(SCc2cc(-c3ccccc3)no2)cc1,"inconclusive: 15.8 µM [activator, single point]",–
CN(Cc1nc(-c2ccncc2)no1)S(=O)(=O)c1ccc(Br)cc1,inactive,–
Cc1ccc2nc(SCC(=O)Nc3cccc(S(N)(=O)=O)c3)[nH]c2c1,"inconclusive: 20 µM [activator, single point]",–
COc1ccc(-c2nc(CN3CCN(C(=O)c4ccco4)CC3)c(C)o2)c(F)c1,inactive,–
COc1ccc(N2CCN(C(=O)c3ccc4ccccc4n3)CC2)cc1,"inconclusive: 3.16 µM [inhibitor, single point]",–
CCCCN(CC)C(=O)Cn1cnc2ccc(S(=O)(=O)N3CCC(C)CC3)cc2c1=O,"inconclusive: 11.2 µM [activator, single point]",–
CCC(CC)C(=O)c1c[nH]c(C(=O)NCc2ccccc2OC)c1,"inconclusive: 17.8 µM [activator, single point]",–
C=C(C)C(O)/C=C/c1ccc(C)cc1 (stereo unspecified),–,inactive: 4.65% [at 10 µM]
O=C(CSc1ccccc1)Nc1cc(Cl)ccc1Oc1ccccc1,"inconclusive: 12.6 µM [activator, partial curve]",–
Cc1cc(OC(C(=O)O)c2ccccc2)c2c(C)c(Cc3ccccc3)c(=O)oc2c1 (stereo unspecified),inactive,–
Cc1cccc(C(=O)Nc2ccccc2C(=O)NCc2ccco2)c1,"inconclusive: 11.2 µM [activator, single point]",–
CNC(=O)Nc1cccc(-c2cc(-c3c(Cl)cccc3Cl)no2)c1,"inconclusive: 3.55 µM [activator, partial curve, poor fit]",–
